Assay results taken from US20130323813, “PEPTIDES FOR THE SPECIFIC BINDING OF RNA TARGETS” (THE UNIVERSITY OF WESTERN AUSTRALIA, published 2013).
Changes are numbered by the printed parent chain. For some of these results: At least one result comes from cells or an extract, where the contact may be indirect. For some of these results: No signal at the amounts used counts as a negative. Where a protein sequence is shown, tags need not be part of it. For some of these results: The comparison behind a weaker result is the experiment's own reference, which may not be listed here. For some of these results: Construct, isoform or probe ends are uncertain for at least one entry.

What was measured:
Assay in all cases: one hybrid
[1] = molecular target: T1, PUM1 PUF AR (repeat 6 Ala12/Arg16) (Homo sapiens) (UniProt Q14671); details: yeast three-hybrid; protein in cells; protein details: Gal4 activation domain fusion
T1 sequence: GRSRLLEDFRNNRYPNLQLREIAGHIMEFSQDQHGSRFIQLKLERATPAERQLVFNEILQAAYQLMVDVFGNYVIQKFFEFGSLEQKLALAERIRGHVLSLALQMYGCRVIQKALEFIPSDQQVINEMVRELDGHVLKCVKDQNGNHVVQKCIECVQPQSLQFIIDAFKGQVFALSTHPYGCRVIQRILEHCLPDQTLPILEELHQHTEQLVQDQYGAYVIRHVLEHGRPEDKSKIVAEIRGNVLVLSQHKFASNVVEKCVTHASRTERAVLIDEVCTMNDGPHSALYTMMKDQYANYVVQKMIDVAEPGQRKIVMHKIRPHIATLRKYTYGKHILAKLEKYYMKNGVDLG

[2] = molecular target: T2, PUM1 PUF GR repeat 1 (Homo sapiens) (UniProt Q14671); details: yeast three-hybrid; protein in cells; protein details: Gal4 activation domain fusion
T2 sequence: T1 sequence with S36G, Q40R, A218N, R222Q

[3] = molecular target: T3, PUM1 PUF GR repeat 3 (Homo sapiens) (UniProt Q14671); details: yeast three-hybrid; protein in cells; protein details: Gal4 activation domain fusion
T3 sequence: T1 sequence with C108G, Q112R, A218N, R222Q

[4] = molecular target: T4, PUM1 PUF GR repeat 4 (Homo sapiens) (UniProt Q14671); details: yeast three-hybrid; protein in cells; protein details: Gal4 activation domain fusion
T4 sequence: T1 sequence with N146G, Q150R, A218N, R222Q

[5] = molecular target: T5, PUM1 PUF GR repeat 5 (Homo sapiens) (UniProt Q14671); details: yeast three-hybrid; protein in cells; protein details: Gal4 activation domain fusion
T5 sequence: T1 sequence with C182G, Q186R, A218N, R222Q

[6] = molecular target: T6, PUM1 PUF SR (repeat 6 Ser12/Arg16) (Homo sapiens) (UniProt Q14671); details: yeast three-hybrid; protein in cells; protein details: Gal4 activation domain fusion
T6 sequence: T1 sequence with A218S

[7] = molecular target: T7, PUM1 PUF domain wild type (NQ) (Homo sapiens) (UniProt Q14671); details: yeast three-hybrid; 8-repeat PUF with cognate RNA; purified recombinant protein
T7 sequence: T1 sequence with A218N, R222Q

CCGGCUAGCAAUUGUAUAUAUUAAUUUAAUAAAGCAUG [NRE]
binding result [1]: no binding
binding result [2]: binds more weakly
binding result [3]: binds more weakly
binding result [4]: binds more weakly
binding result [5]: binds more weakly
binding result [6]: no binding
binding result [7]: binds
